Data as given in article doi:10.1101/2022.05.18.492403.
Results are given in words; binding and its absence hold for the method and conditions named. Binding calls can cover weak binding; strength is not graded here. Tags and fused reporters may be left off the sequences shown.

Protein sequences, listed by entry. Tags and fused reporters are not part of them. Lines headed by an entry give the natural chain unless they say otherwise; changes in a name come on top.
UniProt P73954: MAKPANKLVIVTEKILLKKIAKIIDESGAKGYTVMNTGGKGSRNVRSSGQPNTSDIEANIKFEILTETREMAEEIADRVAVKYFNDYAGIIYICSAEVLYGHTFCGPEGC

Columns and labels:
[1] = target: T1, C-terminally tagged T18-TrxA (BACTH fusion) (Synechocystis) (UniProt P52231); experiment: two-hybrid
T1 sequence: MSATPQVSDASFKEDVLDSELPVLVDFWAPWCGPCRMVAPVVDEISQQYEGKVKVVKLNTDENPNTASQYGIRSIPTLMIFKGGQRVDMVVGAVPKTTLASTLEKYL

[2] = target: T2, recombinant N-terminal His6-tagged TrxA protein encoded by slr0623 (Synechocystis) (UniProt P52231); experiment: pull-down
T2 sequence: T1 sequence

binding [2] | Substance | binding [1]
– | N-terminal T25-SbtB-[C105A+C110A] fusion (BACTH) (from UniProt P73954) | binds weakly
binds weakly | C-terminal StrepII-tagged ScSbtB C105A+C110A variant (from UniProt P73954) | –
– | N-terminal T25-SbtB-Δ104 (BACTH fusion) (from UniProt P73954) (domain or fragment) | no binding
